Values from PubChem BioAssay AID652272 (Drosophila RNAi Screening Center, 2013)

Test: 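Genome-wide knock-down search for components of Hedgehog signalling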 (primary screen)
System: Drosophila clone 8 (Cl8) cells
Reagent: long dsRNA against Drosophila genes
Read-out: 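Firefly light from a Hedgehog-responsive ptc promoter reporter and Renilla reference light, both read on a plate reader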
Scale: firefly Hh reporter signal: higher = more ptc reporter light; Renilla reference signal: higher = more Renilla control light
Call rule: 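Called a hit if the two-replicate mean z-score lies below -2 or above +3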
Calls: active = hit: reporter lowered or raised; inactive = not a hit
The screen tested about 21,000 reagents; this is an unselected part of those that have a named target and a result. Of all reagents, 503 (2.4%) got an active call. 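Raw plate light values, not normalised; calls rest on replicate z-scores that were not deposited; hits include reporter decreases as well as increases.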 The record does not give: the amount of reagent, the time to read-out.

| gene knocked down | DRSC id | firefly Hh reporter signal, replicate 1 | firefly Hh reporter signal, replicate 2 | firefly Hh reporter signal, replicate 3 | Renilla reference signal, replicate 1 | Renilla reference signal, replicate 2 | Outcome |
| --- | --- | --- | --- | --- | --- | --- | --- |
| GIIIspla2 (Phospholipase A2 group III) | DRSC18094 | 1.07e5 | 74505 | – | 2428 | 1912 | inactive |
| CG15395 | DRSC00409 | 1.28e5 | 50247 | – | 3108 | 1277 | inactive |
| Mst77F (Male-specific transcript 77F) | DRSC11871 | 1.54e5 | 1.28e5 | – | 5484 | 3916 | inactive |
| Nadk1b (NAD kinase 1b) | DRSC05432 | 1.32e5 | 3.31e5 | – | 3915 | 12161 | inactive |
| Nadk1b (NAD kinase 1b) | DRSC06964 | 1.62e5 | 89050 | – | 6019 | 3686 | inactive |
| Nadk1b (NAD kinase 1b) | DRSC06965 | 88528 | 49239 | – | 2128 | 4443 | inactive |
| CG11095 | DRSC19375 | 1.04e5 | 97800 | – | 2397 | 2532 | inactive |
| OdsH (Ods-site homeobox) | DRSC20263 | 1.23e5 | 3.41e5 | – | 5276 | 12865 | inactive |
| CG1578 | DRSC19729 | 1.71e5 | 99552 | – | 3734 | 2514 | inactive |
| CG32712 | DRSC17820 | 1.03e5 | 77312 | – | 2450 | 1829 | inactive |
| CG11961 | DRSC06099 | 1.37e5 | 1.01e5 | – | 6688 | 4089 | inactive |
| Glo1 (Glyoxalase 1) | DRSC06657 | 81714 | 54016 | – | 1840 | 4602 | inactive |
| Cpr49Ae (Cuticular protein 49Ae) | DRSC07201 | 73617 | 65635 | – | 3509 | 3120 | inactive |
| Nrt (Neurotactin) | DRSC11237 | 76865 | 54913 | – | 3018 | 2408 | inactive |
| Nop56 | DRSC14699 | 77980 | 67725 | – | 3861 | 3275 | inactive |
| insv (insensitive) | DRSC00579 | 93275 | 78843 | – | 2137 | 1968 | inactive |
| IFT52 (Intraflagellar transport 52) | DRSC03271 | 1.01e5 | 55091 | – | 1914 | 5451 | inactive |
| Rbp1-like | DRSC19828 | 1.31e5 | 3.48e5 | – | 3393 | 12549 | inactive |
| CG13309 | DRSC09980 | 35829 | 43882 | – | 5792 | 3073 | inactive |

Taken from above:
For “Outcome”, OdsH (Ods-site homeobox) [DRSC20263] has inactive
Under “firefly Hh reporter signal, replicate 1”, CG32712 [DRSC17820] shows 1.03e5
insv (insensitive) [DRSC00579], Renilla reference signal, replicate 2 → 1968
Entry for Rbp1-like [DRSC19828] in “Outcome”: inactive

More reagents follow:
| gene knocked down | DRSC id | firefly Hh reporter signal, replicate 1 | firefly Hh reporter signal, replicate 2 | firefly Hh reporter signal, replicate 3 | Renilla reference signal, replicate 1 | Renilla reference signal, replicate 2 | Outcome |
| --- | --- | --- | --- | --- | --- | --- | --- |
| otp (orthopedia) | DRSC04050 | 77690 | 48284 | – | 1776 | 3777 | inactive |
| otp (orthopedia) | DRSC04707 | 82637 | 30920 | – | 2076 | 2707 | inactive |
| CG11902 | DRSC14434 | 7.59e5 | 1.20e5 | – | 53848 | 3362 | inactive |
| shrb (shrub) | DRSC07061 | 54896 | 29344 | – | 2405 | 1456 | inactive |
| Vps13D (Vacuolar protein sorting 13D) | DRSC09818 | 51536 | 42547 | 38817 | 6004 | 3175 | inactive |
| Vps13D (Vacuolar protein sorting 13D) | DRSC09819 | 45432 | 54780 | 53657 | 5796 | 3904 | inactive |
| CG33252 | DRSC19162 | 8.29e5 | 2.46e5 | – | 47024 | 6327 | inactive |
| CG12522 | DRSC09088 | 1.09e5 | 1.87e5 | – | 2965 | 7544 | inactive |
| CG34248 | DRSC09426 | 2.25e5 | – | – | 4899 | – | inactive |
| CarT (Carcinine transporter) | DRSC03196 | 1.81e5 | 85490 | – | 6792 | 3241 | inactive |
| CG13124 | DRSC02220 | 86760 | 48337 | – | 3224 | 2100 | inactive |
| Rpp30 (RNaseP protein p30) | DRSC00320 | 1.64e5 | 98391 | – | 6105 | 3945 | inactive |
| CG13288 | DRSC09962 | 68592 | 58402 | – | 7163 | 4582 | inactive |
| mfr (misfire) | DRSC10543 | 30631 | 56723 | – | 3634 | 3944 | inactive |
| IM33 (Immune induced molecule 33) | DRSC00476 | 1.48e5 | 57529 | – | 3472 | 5862 | inactive |
| tRNA:Leu-CAA-2-3 (transfer RNA:Leucine-CAA 2-3) | DRSC13633 | 43488 | 2.16e5 | – | 10720 | 5121 | inactive |
| Brr2 (Brr2 U5 snRNP complex subunit) | DRSC10559 | 39788 | 17264 | – | 2816 | 1280 | active |
| HUWE1 | DRSC20089 | 65794 | 1.51e5 | – | 2373 | 8157 | inactive |
| kdn (knockdown) | DRSC18328 | 57752 | 2.33e5 | – | 1084 | 8951 | inactive |
| CG9231 | DRSC11054 | 1.17e5 | 87308 | – | 4374 | 3088 | inactive |
